Assay: Low protein diet feeding in rats: body weight, weight of tissues, BUN, blood profile (Example 1)
Format: in vivo, rats (the Donryu strain)
Conditions: male rats, 5% (w/w) in 3% protein diet, three weeks
Excerpt: Four-week-age male rats (the Donryu strain) were fed 20% protein diet for one week. Then, glutamine (Gln) and glutamic acid (Glu) each were mixed into 3% protein diet at the level of 5% (w/w) and offered to the rats for three weeks. Also, a 20% protein diet group and a 3% protein diet group were set as controls. Upon each rat, body weight, weight of tissues, blood urea nitrogen (BUN), the level of leukocytes, the level of erythrocytes, hematocrit, the level of platelets, and production of TNF-α by peritoneal macrophage as an index of immune response were determined.

SMILES	Lever weight [g/100 g/body weight]	Spleen weight [mg/100 g body weight]
NC(=O)CC[C@H](N)C(=O)O [Gln, glutamine]	3.8 ± 0.1	175.6 ± 8.6
N[C@@H](CCC(=O)O)C(=O)O [Glu, glutamic acid]	3.8 ± 0.2	179.7 ± 8.0

Source: patent US6423335B1, “Modified milk powder composition” (priority 1999, dated 2002)
